Article PMC5331223
For some assays here: No signal at the amounts used counts as a negative. For some assays here: At least one verdict was read from the data and is not stated in words by the source. For some assays here: Weaker means in comparison with the reference protein, sequence or condition of that experiment. For some assays here: Tags and fusion partners may be left off the protein sequences shown.

How the values were obtained:
[1] = target: T1, NIN (520-878) (Lotus japonicus) (UniProt Q9S7B1); test: EMSA; conditions: 25 mM Tris-HCl pH 8.0, 80 mM NaCl, 35 mM KCl, 5 mM MgCl2, 10% glycerol, 1 mM DTT, 0.1% Triton; 25 nM probe, 2 ul protein (ERN1 0.75 mg/ml, NIN 1.0 mg/ml stock); recombinant protein; residues 520-878; protein details: His-tag (pET30); label: 6-FAM at 5' of strand 1
T1 sequence (looked up): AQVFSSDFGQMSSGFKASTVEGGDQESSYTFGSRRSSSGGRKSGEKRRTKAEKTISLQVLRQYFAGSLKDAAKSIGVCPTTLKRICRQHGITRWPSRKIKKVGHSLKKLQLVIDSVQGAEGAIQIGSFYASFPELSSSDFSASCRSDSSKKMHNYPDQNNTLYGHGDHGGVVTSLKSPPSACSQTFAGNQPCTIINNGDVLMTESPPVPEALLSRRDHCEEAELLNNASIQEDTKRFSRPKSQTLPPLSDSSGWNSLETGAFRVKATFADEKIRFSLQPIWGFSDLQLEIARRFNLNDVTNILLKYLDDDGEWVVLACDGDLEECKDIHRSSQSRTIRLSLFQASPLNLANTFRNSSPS

[2] = target: ERN1 (Lotus japonicus) (UniProt A0A1X9PY88); test: EMSA; conditions: 25 mM Tris-HCl pH 8.0, 80 mM NaCl, 35 mM KCl, 5 mM MgCl2, 10% glycerol, 1 mM DTT, 0.1% Triton; 25 nM probe, 2 ul protein (ERN1 0.75 mg/ml, NIN 1.0 mg/ml stock); recombinant protein; residues 1-269; protein details: His-tag (pET30); label: 6-FAM at 5' of strand 1

“ATACCCTGCCTTTTCAGACAAGTACCCGAGGCACAAAA (double strand) [Nin1 mutation probe]”: binds more weakly [1].
“TGTCATTGTTATATTTGTCTGAGATCCCAC (double strand) [Ern1 mutation probe]”: no binding [2].
